Results from PubChem BioAssay AID258 (DTP/NCI, 2004).
The list is a part of this screen's results and no random one: its compounds were picked by chemical class. Other doses and runs of a compound may be missing. T/C is the treated group as % of the vehicle group. Where survival is the endpoint, this PubChem deposit counts one and a half times the control or more as active, and values a quarter to a half above the control carry no call in these data; other NCI protocols may use other cut-offs. Schedule codes are those of the source, read here as Q, the interval in days (D) or hours (H), X, the number of doses.

Tested on: CD2F1 mice, L1210 leukemia sc, survival T/C
Test: NCI In Vivo Anticancer Drug Screen. Data for tumor model L1210 Leukemia (subcutaneous) in CD2F1 (CDF1) mice
Details: T/C endpoint: median survival time, schedule: Q01DX009 (ip), vehicle: saline, higher T/C = longer survival
Protocol: The antitumor activity of compounds was measured in mice bearing transplantable tumors. Survival or tumor size were measured and the results are expressed as the measurement made in the treated group (T) divided by the measurement made in the vehicle treated control group (C). The tumor model used in this assay is L1210 Leukemia (subcutaneous) in CD2F1 (CDF1) mice

SMILES: CN(CCCl)CCCl
- T/C (dose: 0.12 mg/kg/injection): 98 % of control
- T/C (dose: 0.25 mg/kg/injection): 102 % of control
- T/C (dose: 0.5 mg/kg/injection): 102 % of control
